Earlier results on 1 molecule are cited in patent publication US7241611B2, “Methods for synthesis of holo-photoactive yellow protein” (Universiteit Gent, priority 2002, dated 2007).

Structures are written as SMILES.

Data set [1] concerns the target PAL-1 isozyme from parsley (Petroselinum crispum) (Petroselinum crispum, UniProt P24481). Particulars: cited from earlier work.
Data set [2] relates to TAL enzyme by mutagenesis of the yeast Rhodotorula glutinis PAL/TAL enzyme. The note with it: cited from earlier work.

The Km is the concentration of substrate that gives half-maximal velocity. Turning to `N[C@@H](Cc1ccc(O)cc1)C(=O)O` [L-Tyrosine, L-tyrosine], the Michaelis-Menten constant (Km) in data set [1] was 2500 µM. In addition, in data set [2], the “ratio of TAL activity to PAL activity” value is 1.7.
